Results deposited as PubChem BioAssay AID720710 (VTT Finland, 2013)

- Screen: 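Knock-downs that leave cyclin E-high cells sensitive to replication stress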 (primary screen)
- Cell system: human U-2 OS bone cancer cells, parental and a cyclin E (CCNE1) overexpressing line
- Reagents: single siRNA against human genes, 1 µM siRNA in the printed spot mix
- Duration: 67 h
- Challenge: half the arrays: hydroxyurea 2 mM for 16 h, then 3 h recovery; other arrays untreated
- Measured: 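DNA synthesis measured as imaged EdU uptake per nucleus (DAPI) at 67 h, normalised to subgrid median and given as z-score versus non-targeting controls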
- Reading the numbers: EdU z-score, cyclin E line, hydroxyurea: higher = more DNA synthesis than non-targeting controls
The whole screen tested about 1,380 reagents; below is a part drawn at random. 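One array per condition without replicates; hydroxyurea arrays received 2 mM for 16 h plus 3 h recovery.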 Reagents against one gene are numbered here. Not all columns of the deposit are shown.

| target gene | siRNA no. | EdU z-score, cyclin E line, hydroxyurea |
| --- | --- | --- |
| POLQ | 1 | 0.21 |
| POLQ | 2 | 3.74 |
| PMS2 | 1 | -1.22 |
| PMS2 | 2 | 0.835 |
| APC | 1 | -1.63 |
| APC | 2 | -0.562 |
| DDB2 | 1 | -1.69 |
| DDB2 | 2 | -0.236 |
| RAD17 | 1 | -1.4 |
| RAD17 | 2 | -0.835 |
| LOC727726 | 1 | 0.634 |
| LOC727726 | 2 | 1.3 |
| NCOA6 | 1 | -2.13 |
| NCOA6 | 2 | 1.3 |
| S100A11 | 1 | -1.63 |
| S100A11 | 2 | -0.546 |
| MCM5 | 1 | -0.499 |
| MCM5 | 2 | -0.273 |
| MSH4 | 1 | -0.653 |
| MSH4 | 2 | -0.0327 |
| TP53BP1 | 1 | 0.787 |
| TP53BP1 | 2 | 0.946 |
| KLHL41 | 1 | 0.132 |
| KLHL41 | 2 | 0.991 |
| FAAP100 | 1 | -0.167 |
| FAAP100 | 2 | 1.77 |
| PSMC1 | 1 | -0.5 |
| PSMC1 | 2 | 0.344 |
| PPP1R15A | 1 | -0.0849 |
| PPP1R15A | 2 | 0.1 |
| PARP6 | 1 | -1.57 |
| PARP6 | 2 | -1.37 |
| P3H4 | 1 | -2.08 |
| P3H4 | 2 | 2.13 |
| XRCC1 | 1 | -0.0449 |
| XRCC1 | 2 | 1.68 |
| LOC730324 | 1 | -0.516 |
| LOC730324 | 2 | 1.31 |
| LIG1 | 1 | -0.245 |
| LIG1 | 2 | 1.24 |
| GNL1 | 1 | -1.1 |
| GNL1 | 2 | 0.886 |
| NSMCE1 | 1 | -2.15 |
| NSMCE1 | 2 | -0.39 |
| TFAP2B | 1 | 1.06 |
| TFAP2B | 2 | 1.79 |
| RAD51B | 1 | 0.13 |
| RAD51B | 2 | 0.717 |
| CCNA2 | 1 | -1.51 |
| CCNA2 | 2 | -0.103 |
| ERCC8 | 1 | -0.0303 |
| ERCC8 | 2 | 0.0326 |
| H2AC6 | 1 | 0.583 |
| H2AC6 | 2 | 2.03 |
| CSNK1E | 1 | -1.76 |
| CSNK1E | 2 | 0.421 |
| ORC1 | 1 | -0.161 |
| ORC1 | 2 | -0.151 |

Already shown: 6 of the entries above.
| target gene | siRNA no. | EdU z-score, cyclin E line, hydroxyurea |
| --- | --- | --- |
| LOC730324 | 1 | -0.516 |
| LOC730324 | 2 | 1.31 |
| LIG1 | 1 | -0.245 |
| LIG1 | 2 | 1.24 |
| GNL1 | 1 | -1.1 |
| GNL1 | 2 | 0.886 |
